Results deposited as PubChem BioAssay AID1224830 (NIAID, 2016)

- Purpose: 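Host factors that control LPS-induced TNF expression in human macrophages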 (primary screen)
- System: human THP-1 monocytic leukaemia cells, TNF dual-luciferase reporter clone, PMA-differentiated to macrophage-like cells
- Reagent: siRNA pool against human genes, 50 nM
- Time to read-out: LPS for 4 h, given about 3 days after siRNA transfection
- Treatment: bacterial LPS (TLR4 ligand), 10 ng/ml
- Read-out: 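Ratio of firefly to renilla light, scaled to the plate median and expressed as a robust z-score per replicate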
- Reading the numbers: TNF reporter robust z-score: higher = stronger TNF reporter response to LPS
- Rule for the call: 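a well is active when its z-score exceeds 2.8 or falls below -1.5; control wells carry no call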
The whole screen tested about 18,000 reagents; below is a part drawn at random. Over the whole deposit, about 2,900 (16%) are marked active. 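Calls are made per well; low scores hint the gene aids the LPS response, high scores that it dampens it.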 Repeated entries: four replicate wells of each siRNA pool.

ARL14 (GeneID 80117) | TNF reporter robust z-score: -1.2; Outcome: inactive
ARL14 (GeneID 80117) | TNF reporter robust z-score: -0.8; Outcome: inactive
ARL14 (GeneID 80117) | TNF reporter robust z-score: -0.91; Outcome: inactive
FMNL1 (GeneID 752) | TNF reporter robust z-score: -0.81; Outcome: inactive
FMNL1 (GeneID 752) | TNF reporter robust z-score: -0.39; Outcome: inactive
FMNL1 (GeneID 752) | TNF reporter robust z-score: -0.96; Outcome: inactive
FMNL1 (GeneID 752) | TNF reporter robust z-score: -0.18; Outcome: inactive
ZNF121 (GeneID 7675) | TNF reporter robust z-score: -0.72; Outcome: inactive
ZNF121 (GeneID 7675) | TNF reporter robust z-score: -0.08; Outcome: inactive
ZNF121 (GeneID 7675) | TNF reporter robust z-score: -0.95; Outcome: inactive
ZNF121 (GeneID 7675) | TNF reporter robust z-score: -0.53; Outcome: inactive
ATL3 (GeneID 25923) | TNF reporter robust z-score: -0.66; Outcome: inactive
ATL3 (GeneID 25923) | TNF reporter robust z-score: -0.79; Outcome: inactive
ATL3 (GeneID 25923) | TNF reporter robust z-score: -0.62; Outcome: inactive
ATL3 (GeneID 25923) | TNF reporter robust z-score: -0.91; Outcome: inactive
EIF2S3 (GeneID 1968) | TNF reporter robust z-score: -1.22; Outcome: inactive
EIF2S3 (GeneID 1968) | TNF reporter robust z-score: -1.02; Outcome: inactive
EIF2S3 (GeneID 1968) | TNF reporter robust z-score: -0.96; Outcome: inactive
EIF2S3 (GeneID 1968) | TNF reporter robust z-score: -0.62; Outcome: inactive
PPIL1 (GeneID 51645) | TNF reporter robust z-score: -0.26; Outcome: inactive
PPIL1 (GeneID 51645) | TNF reporter robust z-score: -0.65; Outcome: inactive
PPIL1 (GeneID 51645) | TNF reporter robust z-score: -0.47; Outcome: inactive
PPIL1 (GeneID 51645) | TNF reporter robust z-score: 0.01; Outcome: inactive

Reformatted: 2 of the entries above
{"gene symbol":"ARL14 (GeneID 80117)","TNF reporter robust z-score":-0.8,"Outcome":"inactive"}
{"gene symbol":"ARL14 (GeneID 80117)","TNF reporter robust z-score":-0.91,"Outcome":"inactive"}

Further entries follow.
MEIOB (GeneID 254528) | TNF reporter robust z-score: 0.1; Outcome: inactive
MEIOB (GeneID 254528) | TNF reporter robust z-score: -0.08; Outcome: inactive
MEIOB (GeneID 254528) | TNF reporter robust z-score: -0.51; Outcome: inactive
MEIOB (GeneID 254528) | TNF reporter robust z-score: 0.36; Outcome: inactive
VNN2 (GeneID 8875) | TNF reporter robust z-score: -0.74; Outcome: inactive
VNN2 (GeneID 8875) | TNF reporter robust z-score: -0.83; Outcome: inactive
VNN2 (GeneID 8875) | TNF reporter robust z-score: -0.86; Outcome: inactive
VNN2 (GeneID 8875) | TNF reporter robust z-score: 0.09; Outcome: inactive
PKN3 (GeneID 29941) | TNF reporter robust z-score: -0.16; Outcome: inactive
PKN3 (GeneID 29941) | TNF reporter robust z-score: 0.82; Outcome: inactive
PKN3 (GeneID 29941) | TNF reporter robust z-score: 0.11; Outcome: inactive
PKN3 (GeneID 29941) | TNF reporter robust z-score: 0.62; Outcome: inactive
